The list shows a part of the results. The data scatter; read single values as rough.
How the values were obtained:
[1] = compound: ClCC(=O)N[C@@H]1CCCc2ccccc12; assay: log2 mean competition ratio of IA-DTB cysteine labelling (DMSO/compound) (log2 ratio); higher = stronger cysteine engagement by compound; details: treatment time: 4 h, cell line lysate: HEK293T
Protocol: (§1)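 IA-DTB competitive cysteine chemoproteomics in HEK293T RIPA lysate. Lysates were treated with compound 29 or 30 at 50 or 200 µM for 4 h, then IA-DTB (500 µM, 1 h), trypsin-digested, NeutrAvidin-enriched and analysed by diaPASEF. Competition ratio = intensity DMSO / intensity compound (n=4 treated, n=64 DMSO); binding: mean log2 CR ≥ 1 and p ≤ 0.05 plus QC filters. Target is the cysteine site.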

Chains of the proteins cited; added tags and fusions are not shown. Lines headed by an entry give the natural chain unless they say otherwise; changes in a name come on top. Residues count along the entry.
UniProt Q9Y2J2: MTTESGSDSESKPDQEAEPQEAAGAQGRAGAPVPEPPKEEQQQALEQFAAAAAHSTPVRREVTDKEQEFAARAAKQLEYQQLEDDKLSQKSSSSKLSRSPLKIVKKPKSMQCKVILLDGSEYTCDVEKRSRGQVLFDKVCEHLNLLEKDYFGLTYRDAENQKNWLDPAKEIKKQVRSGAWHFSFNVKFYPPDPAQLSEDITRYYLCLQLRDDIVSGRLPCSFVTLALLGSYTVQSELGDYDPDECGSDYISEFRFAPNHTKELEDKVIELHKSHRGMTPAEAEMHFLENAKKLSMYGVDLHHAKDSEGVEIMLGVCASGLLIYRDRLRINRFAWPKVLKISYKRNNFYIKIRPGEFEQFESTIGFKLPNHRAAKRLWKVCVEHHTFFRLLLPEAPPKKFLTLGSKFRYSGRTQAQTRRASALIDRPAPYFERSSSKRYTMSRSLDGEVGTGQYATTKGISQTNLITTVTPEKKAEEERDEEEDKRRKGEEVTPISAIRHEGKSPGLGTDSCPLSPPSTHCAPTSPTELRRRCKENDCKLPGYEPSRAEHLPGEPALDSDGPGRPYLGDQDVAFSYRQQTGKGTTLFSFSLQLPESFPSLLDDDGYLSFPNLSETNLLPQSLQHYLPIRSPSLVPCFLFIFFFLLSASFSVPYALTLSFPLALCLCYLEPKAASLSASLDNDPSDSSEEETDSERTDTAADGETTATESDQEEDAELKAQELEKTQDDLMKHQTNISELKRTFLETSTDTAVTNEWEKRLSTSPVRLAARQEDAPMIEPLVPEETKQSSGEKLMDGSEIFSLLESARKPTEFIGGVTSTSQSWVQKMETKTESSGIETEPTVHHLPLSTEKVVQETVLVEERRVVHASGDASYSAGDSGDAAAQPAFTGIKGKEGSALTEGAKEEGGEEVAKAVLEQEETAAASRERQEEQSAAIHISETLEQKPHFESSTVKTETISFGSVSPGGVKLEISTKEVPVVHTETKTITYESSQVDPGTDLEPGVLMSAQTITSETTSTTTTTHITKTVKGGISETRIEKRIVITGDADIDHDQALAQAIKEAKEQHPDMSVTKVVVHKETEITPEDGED
UniProt O00471, 558-578: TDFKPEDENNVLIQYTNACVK
UniProt Q6IA86, 798-817: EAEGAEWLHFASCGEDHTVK
UniProt Q9NVI1: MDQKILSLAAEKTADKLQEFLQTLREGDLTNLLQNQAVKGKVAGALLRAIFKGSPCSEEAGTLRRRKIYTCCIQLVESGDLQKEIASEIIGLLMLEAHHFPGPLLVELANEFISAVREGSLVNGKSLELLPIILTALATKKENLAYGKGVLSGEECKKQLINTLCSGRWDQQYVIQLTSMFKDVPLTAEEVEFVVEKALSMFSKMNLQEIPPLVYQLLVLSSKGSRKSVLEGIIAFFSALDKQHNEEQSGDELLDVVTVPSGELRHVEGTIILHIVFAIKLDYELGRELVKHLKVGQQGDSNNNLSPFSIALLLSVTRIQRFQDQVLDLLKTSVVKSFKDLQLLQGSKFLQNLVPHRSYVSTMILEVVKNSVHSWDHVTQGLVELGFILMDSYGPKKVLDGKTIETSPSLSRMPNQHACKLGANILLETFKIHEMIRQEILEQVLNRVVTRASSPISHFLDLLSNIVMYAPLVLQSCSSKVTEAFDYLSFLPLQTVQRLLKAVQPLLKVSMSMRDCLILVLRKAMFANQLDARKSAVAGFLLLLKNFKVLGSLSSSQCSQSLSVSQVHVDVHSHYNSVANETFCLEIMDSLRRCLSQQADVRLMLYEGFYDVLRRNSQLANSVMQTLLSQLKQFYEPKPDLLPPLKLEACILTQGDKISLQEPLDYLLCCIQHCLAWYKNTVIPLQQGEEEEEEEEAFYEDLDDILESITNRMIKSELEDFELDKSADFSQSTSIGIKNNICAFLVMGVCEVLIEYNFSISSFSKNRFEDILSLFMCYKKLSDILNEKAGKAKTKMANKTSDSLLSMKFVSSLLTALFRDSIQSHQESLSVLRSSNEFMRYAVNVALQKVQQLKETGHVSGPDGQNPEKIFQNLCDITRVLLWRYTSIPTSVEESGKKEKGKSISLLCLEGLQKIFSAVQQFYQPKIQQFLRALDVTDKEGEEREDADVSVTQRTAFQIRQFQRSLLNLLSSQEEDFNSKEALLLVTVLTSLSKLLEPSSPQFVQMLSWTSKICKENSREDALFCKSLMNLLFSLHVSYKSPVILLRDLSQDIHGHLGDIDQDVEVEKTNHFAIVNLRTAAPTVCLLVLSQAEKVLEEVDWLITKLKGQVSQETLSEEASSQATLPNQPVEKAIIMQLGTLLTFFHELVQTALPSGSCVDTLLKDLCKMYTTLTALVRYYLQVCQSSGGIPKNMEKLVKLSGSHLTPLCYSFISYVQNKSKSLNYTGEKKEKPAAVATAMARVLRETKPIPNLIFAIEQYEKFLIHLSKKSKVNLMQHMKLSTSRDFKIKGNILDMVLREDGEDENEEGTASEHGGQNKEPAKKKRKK
UniProt P54753: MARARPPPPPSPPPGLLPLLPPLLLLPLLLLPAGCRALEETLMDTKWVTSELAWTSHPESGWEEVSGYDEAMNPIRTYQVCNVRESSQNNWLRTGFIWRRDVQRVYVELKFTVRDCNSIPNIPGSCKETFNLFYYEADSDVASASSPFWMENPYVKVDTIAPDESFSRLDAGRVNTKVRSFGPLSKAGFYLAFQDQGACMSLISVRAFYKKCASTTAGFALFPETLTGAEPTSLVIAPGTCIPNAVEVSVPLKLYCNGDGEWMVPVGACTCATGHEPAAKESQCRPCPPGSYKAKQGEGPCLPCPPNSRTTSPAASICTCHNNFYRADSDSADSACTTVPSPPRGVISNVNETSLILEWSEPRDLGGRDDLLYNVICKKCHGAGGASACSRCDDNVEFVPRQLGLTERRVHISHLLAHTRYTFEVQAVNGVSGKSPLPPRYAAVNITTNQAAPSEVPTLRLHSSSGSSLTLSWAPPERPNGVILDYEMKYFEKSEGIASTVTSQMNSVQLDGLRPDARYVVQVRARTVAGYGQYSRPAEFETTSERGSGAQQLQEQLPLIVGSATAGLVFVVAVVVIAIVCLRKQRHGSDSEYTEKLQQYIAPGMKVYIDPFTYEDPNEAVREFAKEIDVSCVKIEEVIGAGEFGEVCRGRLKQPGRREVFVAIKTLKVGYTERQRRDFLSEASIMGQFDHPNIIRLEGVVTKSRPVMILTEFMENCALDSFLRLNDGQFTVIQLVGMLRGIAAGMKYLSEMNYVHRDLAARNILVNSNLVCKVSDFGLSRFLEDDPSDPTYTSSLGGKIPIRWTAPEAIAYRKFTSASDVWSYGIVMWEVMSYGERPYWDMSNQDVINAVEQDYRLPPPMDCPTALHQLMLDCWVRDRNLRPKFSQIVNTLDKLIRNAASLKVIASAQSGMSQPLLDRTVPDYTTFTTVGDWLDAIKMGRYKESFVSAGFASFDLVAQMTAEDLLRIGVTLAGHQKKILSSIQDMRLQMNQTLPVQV
UniProt Q9HCE0: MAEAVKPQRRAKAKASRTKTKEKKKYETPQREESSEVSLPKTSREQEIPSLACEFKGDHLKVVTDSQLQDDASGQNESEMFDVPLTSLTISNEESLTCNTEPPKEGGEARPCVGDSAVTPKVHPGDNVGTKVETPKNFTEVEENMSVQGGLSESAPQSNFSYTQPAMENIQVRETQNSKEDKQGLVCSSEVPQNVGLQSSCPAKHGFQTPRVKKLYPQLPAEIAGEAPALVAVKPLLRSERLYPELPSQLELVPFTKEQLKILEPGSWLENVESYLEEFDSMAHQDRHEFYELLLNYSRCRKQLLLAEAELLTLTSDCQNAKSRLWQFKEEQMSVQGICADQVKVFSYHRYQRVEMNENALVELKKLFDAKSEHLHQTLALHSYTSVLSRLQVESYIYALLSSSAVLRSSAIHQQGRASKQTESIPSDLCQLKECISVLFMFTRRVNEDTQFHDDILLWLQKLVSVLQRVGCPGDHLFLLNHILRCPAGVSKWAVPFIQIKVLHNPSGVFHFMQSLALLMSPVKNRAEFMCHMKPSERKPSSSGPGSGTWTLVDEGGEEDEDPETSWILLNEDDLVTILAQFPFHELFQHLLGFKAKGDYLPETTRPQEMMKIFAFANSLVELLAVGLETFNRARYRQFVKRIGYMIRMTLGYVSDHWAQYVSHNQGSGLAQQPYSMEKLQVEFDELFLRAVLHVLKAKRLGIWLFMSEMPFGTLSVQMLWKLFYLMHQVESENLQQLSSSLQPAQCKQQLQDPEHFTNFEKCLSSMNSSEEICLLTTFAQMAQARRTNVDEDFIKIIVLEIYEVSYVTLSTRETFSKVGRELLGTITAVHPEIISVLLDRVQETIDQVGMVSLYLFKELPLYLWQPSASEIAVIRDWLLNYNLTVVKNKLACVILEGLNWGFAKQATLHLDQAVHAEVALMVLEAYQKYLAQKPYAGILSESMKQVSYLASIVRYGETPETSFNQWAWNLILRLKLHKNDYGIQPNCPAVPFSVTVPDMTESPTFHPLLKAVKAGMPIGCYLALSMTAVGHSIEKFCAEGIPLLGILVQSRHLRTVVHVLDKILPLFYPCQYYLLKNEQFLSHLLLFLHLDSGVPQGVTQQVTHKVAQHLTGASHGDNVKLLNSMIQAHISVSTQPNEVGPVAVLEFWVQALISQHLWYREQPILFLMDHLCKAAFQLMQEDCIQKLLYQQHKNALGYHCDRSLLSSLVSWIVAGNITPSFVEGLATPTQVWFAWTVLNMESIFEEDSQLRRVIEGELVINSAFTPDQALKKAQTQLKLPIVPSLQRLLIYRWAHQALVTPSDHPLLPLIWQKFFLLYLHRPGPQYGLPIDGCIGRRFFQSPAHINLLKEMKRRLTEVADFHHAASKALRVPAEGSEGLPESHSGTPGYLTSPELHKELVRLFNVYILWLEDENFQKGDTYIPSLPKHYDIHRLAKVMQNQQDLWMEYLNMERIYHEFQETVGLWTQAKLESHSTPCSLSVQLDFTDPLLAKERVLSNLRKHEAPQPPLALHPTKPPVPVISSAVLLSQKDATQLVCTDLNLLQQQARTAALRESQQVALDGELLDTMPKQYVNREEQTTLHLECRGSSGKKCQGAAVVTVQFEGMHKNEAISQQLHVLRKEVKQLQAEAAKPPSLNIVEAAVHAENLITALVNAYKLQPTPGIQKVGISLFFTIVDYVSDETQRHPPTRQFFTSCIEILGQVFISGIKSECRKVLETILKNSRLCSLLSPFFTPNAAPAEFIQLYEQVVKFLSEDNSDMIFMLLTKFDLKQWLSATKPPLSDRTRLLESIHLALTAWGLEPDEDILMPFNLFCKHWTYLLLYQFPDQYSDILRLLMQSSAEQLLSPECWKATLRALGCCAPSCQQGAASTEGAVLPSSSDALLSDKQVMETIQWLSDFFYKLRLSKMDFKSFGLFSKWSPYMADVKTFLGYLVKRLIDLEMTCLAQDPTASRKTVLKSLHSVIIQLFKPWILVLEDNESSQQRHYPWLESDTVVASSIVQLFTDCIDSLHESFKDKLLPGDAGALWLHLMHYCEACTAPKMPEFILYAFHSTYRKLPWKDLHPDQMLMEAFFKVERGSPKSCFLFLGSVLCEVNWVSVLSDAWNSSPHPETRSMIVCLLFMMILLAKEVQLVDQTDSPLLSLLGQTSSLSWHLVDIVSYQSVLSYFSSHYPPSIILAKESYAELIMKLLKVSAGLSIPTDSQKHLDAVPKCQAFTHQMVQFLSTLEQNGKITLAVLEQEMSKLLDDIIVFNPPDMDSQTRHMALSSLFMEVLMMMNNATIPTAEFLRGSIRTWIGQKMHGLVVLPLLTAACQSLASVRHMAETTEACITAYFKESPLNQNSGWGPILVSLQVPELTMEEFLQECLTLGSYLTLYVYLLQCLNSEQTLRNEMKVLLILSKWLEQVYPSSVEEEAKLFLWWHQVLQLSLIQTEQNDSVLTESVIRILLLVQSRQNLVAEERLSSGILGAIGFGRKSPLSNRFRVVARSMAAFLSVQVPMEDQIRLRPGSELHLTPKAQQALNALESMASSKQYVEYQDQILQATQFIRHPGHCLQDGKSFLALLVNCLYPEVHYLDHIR
UniProt Q00597: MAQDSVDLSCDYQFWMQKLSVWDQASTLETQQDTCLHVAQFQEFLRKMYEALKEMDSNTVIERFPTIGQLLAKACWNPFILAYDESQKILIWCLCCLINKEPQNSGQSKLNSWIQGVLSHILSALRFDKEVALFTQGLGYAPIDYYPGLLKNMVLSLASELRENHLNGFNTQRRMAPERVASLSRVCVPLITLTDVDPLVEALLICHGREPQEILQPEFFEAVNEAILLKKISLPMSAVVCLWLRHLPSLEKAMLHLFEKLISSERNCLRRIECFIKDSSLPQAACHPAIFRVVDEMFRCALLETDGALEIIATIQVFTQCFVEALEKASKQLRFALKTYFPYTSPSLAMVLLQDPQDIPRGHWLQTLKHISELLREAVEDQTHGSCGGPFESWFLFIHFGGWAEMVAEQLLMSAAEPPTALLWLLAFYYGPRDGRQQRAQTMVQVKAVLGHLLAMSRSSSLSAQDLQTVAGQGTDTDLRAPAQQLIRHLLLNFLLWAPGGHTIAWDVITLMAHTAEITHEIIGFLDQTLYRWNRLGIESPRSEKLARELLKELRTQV

[2] = compound: ClCC(=O)N[C@H]1CCCc2ccccc12; assay: as above; details: treatment time: 4 h, cell line lysate: HEK293T
Protocol: as §1

Row | Target | log2 mean competition ratio ([1]; 50 µM) | log2 mean competition ratio ([1]; 200 µM) | log2 mean competition ratio ([2]; 50 µM) | log2 mean competition ratio ([2]; 200 µM)
1 | FAM241A C2 (UniProt Q8N8J7) | -0.088 | 0.0723 | 0.107 | 0.237
2 | EXD2 C566 (UniProt Q9NVH0) | 0.246 | -0.244 | 0.148 | -0.417
3 | FAN1 C700 | -0.0757 | 0.0104 | 0.121 | -0.0453
4 | ETAA1 C68 (UniProt Q9NY74) | -0.155 | 0.00325 | 0.0465 | 0.126
5 | ESCO2 C518 (UniProt Q56NI9) | -0.258 | 0.203 | 0.0709 | 0.159
6 | EPC1 C566 (UniProt Q9H2F5) | -0.0139 | 0.184 | -0.189 | 0.225
7 | EPHA2 C612 (UniProt P29317) | 0.0834 | 0.0743 | -0.211 | 0.0571
8 | EPB41L3 C124 (UniProt Q9Y2J2) | -0.0196 | 0.0956 | -0.153 | 0.141
9 | EPS15 C782 (UniProt P42566) | 0.0886 | -0.694 | 0.341 | -0.612
10 | EXOC5 C576 (UniProt O00471) | 0.0869 | -0.418 | 0.172 | -0.51
11 | FAM8A1 C343 (UniProt Q9UBU6) | -0.247 | -0.326 | 0.0834 | -0.215
12 | ENTR1 C371 (UniProt Q96C92) | 0.0813 | 0.0806 | -0.0729 | -0.0472
13 | ENO3 C357 | -0.248 | 0.0769 | -0.19 | 0.0297
14 | FAM117B C198 (UniProt Q6P1L5) | -0.0494 | 0.153 | 0.173 | 0.173
15 | ELP2 C810 (UniProt Q6IA86) | -0.254 | -0.303 | 0.0502 | -0.455
16 | EXOSC1 C8 (UniProt Q9Y3B2) | 0.0254 | 0.0885 | 0.108 | 0.0738
17 | ERBIN C464 (UniProt Q96RT1) | -0.139 | 0.0123 | -0.147 | 0.00334
18 | ELP4 C412 (UniProt Q96EB1) | 0.0643 | -0.146 | -0.445 | -0.0911
19 | ESCO1 C362 | -0.231 | 0.182 | -0.0376 | -0.056
20 | FAM189B C163 | 0.214 | 0.261 | -0.026 | 0.396
21 | FAM171A1 C815 (UniProt Q5VUB5) | 0.206 | 0.13 | 0.127 | 0.0358
22 | FAM120A C174 | -0.0528 | 0.168 | -0.452 | -0.159
23 | EP400 C1761 (UniProt Q96L91) | 0.149 | -0.0553 | -0.0343 | -0.0143
24 | FANCI C1085 (UniProt Q9NVI1) | 0.374 | -0.279 | 0.118 | -0.375
25 | EMSY C1211 (UniProt Q7Z589) | 0.0895 | -0.0313 | 0.0514 | -0.0284

Row | Target | log2 mean competition ratio ([1]; 50 µM) | log2 mean competition ratio ([1]; 200 µM) | log2 mean competition ratio ([2]; 50 µM) | log2 mean competition ratio ([2]; 200 µM)
26 | ELP1 C341 (UniProt O95163) | -0.0619 | -0.141 | 0.46 | -0.111
27 | FAM120A C694 | 0.375 | 0.259 | 0.616 | 0.239
28 | FAM98B C295 (UniProt Q52LJ0) | 0.0897 | -0.0997 | 0.178 | -0.0959
29 | EVI5 C641 (UniProt O60447) | -0.25 | 0.225 | -0.0547 | 0.192
30 | EXOSC5 C102 (UniProt Q9NQT4) | 0.0279 | -0.188 | -0.749 | -0.463
31 | FAM120C C720 (UniProt Q9NX05) | 0.218 | 0.365 | 0.578 | 0.314
32 | FAM120C C876 (UniProt Q9NX05) | -0.317 | 0.535 | -0.553 | 0.275
33 | ERBIN C1309 (UniProt Q96RT1) | 0.15 | 0.294 | -0.102 | -0.0127
34 | EPB41 C179 | -0.151 | -0.0944 | -0.153 | 0.104
35 | EME1 C369 (UniProt Q96AY2) | 0.273 | -0.186 | -0.184 | -0.188
36 | EPC2 C626 (UniProt Q52LR7) | -0.487 | 0.017 | -0.0823 | 0.124
37 | FANCD2 C893 (UniProt Q9BXW9) | -0.205 | 0.191 | -0.181 | -0.0697
38 | FAM120B C511 (UniProt Q96EK7) | -0.24 | -0.161 | 0.136 | -0.0191
39 | FANCD2 C310 (UniProt Q9BXW9) | -0.232 | 0.053 | -0.237 | -0.191
40 | FANCI C156 (UniProt Q9NVI1) | 0.0929 | 0.161 | 0.184 | 0.141
41 | ETFA C68 (UniProt P13804) | -0.111 | 0.0168 | 0.0744 | 0.0798
42 | EPHB3 C648 (UniProt P54753) | -0.309 | -0.113 | 0.00899 | 0.21
43 | EXD2 C168 (UniProt Q9NVH0) | -0.141 | 0.144 | -0.232 | 0.00778
44 | EMC8 C12 (UniProt O43402) | 0.113 | -0.0909 | -0.0205 | -0.0907
45 | ELP4 C218 (UniProt Q96EB1) | 0.164 | 0.466 | 0.246 | 1.14
46 | EPG5 C1538 (UniProt Q9HCE0) | -0.5 |  | -0.607 | 0.0861
47 | FANCI C56 (UniProt Q9NVI1) | 0.135 | -0.018 | 0.128 | -0.00856
48 | FANCC C286 (UniProt Q00597) |  | 0.447 |  | -0.031
49 | ESCO1 C515 | 0.00772 | -0.0375 | -0.255 | 0.0803
50 | EPB41L5 C543 (UniProt Q9HCM4) |  | 1.27 |  | 0.641

Reformatted with tabs: part of the list above.
Row	Target	log2 mean competition ratio ([1]; 50 µM)	log2 mean competition ratio ([1]; 200 µM)	log2 mean competition ratio ([2]; 50 µM)	log2 mean competition ratio ([2]; 200 µM)
28	FAM98B C295 (UniProt Q52LJ0)	0.0897	-0.0997	0.178	-0.0959
29	EVI5 C641 (UniProt O60447)	-0.25	0.225	-0.0547	0.192
30	EXOSC5 C102 (UniProt Q9NQT4)	0.0279	-0.188	-0.749	-0.463

— the supplement of paper PMC11732987, “Enantioselective OTUD7B fragment discovery through chemoproteomics screening and high-throughput optimisation” (Communications Chemistry, 2025)
